Data: PubChem BioAssay AID504327 (National Center for Advancing Translational Sciences (NCATS), 2011)
Several values for one entry are separate records, joined by “and”; a condition that tells them apart may be missing. Identical values can stand only once. The campaign covered roughly 390,000 compounds. About 820 (0.21%) were called active. This list was built around the results that the source calls inconclusive (neither active nor inactive); the mix of calls is not that of the screen. Calls come from the whole dose curve; as a rule, active = well fitted inhibition curve with a large enough effect; inconclusive = small, poorly fitted or top-dose-only effect, or another doubt; inactive = no such curve, though single readings can be large or run the other way. A potency beside an inconclusive call is a rough fit, not a confirmed value.

Protein sequences, listed by entry. Tags and fused reporters are not part of them.
UniProt Q92830, whole entry, looked up: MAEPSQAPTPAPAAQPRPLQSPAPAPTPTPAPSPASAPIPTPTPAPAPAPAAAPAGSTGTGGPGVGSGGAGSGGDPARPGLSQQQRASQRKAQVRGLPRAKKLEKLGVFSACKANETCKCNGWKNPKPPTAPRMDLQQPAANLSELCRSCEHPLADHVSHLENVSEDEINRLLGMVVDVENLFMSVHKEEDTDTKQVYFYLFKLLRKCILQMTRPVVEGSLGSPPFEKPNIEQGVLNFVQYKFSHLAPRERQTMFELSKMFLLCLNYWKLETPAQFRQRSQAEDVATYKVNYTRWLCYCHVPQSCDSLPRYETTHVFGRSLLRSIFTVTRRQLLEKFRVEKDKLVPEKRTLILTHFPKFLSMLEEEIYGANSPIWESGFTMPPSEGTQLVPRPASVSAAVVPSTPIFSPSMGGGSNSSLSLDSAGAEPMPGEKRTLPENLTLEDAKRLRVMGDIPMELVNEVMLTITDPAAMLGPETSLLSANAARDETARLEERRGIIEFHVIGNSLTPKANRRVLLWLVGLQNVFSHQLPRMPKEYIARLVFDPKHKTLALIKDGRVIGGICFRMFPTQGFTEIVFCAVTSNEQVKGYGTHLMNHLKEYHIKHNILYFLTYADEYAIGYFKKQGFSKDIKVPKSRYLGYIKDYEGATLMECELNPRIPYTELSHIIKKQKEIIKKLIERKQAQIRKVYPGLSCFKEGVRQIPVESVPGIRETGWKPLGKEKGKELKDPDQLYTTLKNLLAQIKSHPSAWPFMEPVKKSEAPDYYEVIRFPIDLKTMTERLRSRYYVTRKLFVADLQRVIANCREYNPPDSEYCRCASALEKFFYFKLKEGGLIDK

target: Histone acetyltransferase KAT2A (Homo sapiens) (UniProt Q92830); experiment: qHTS Assay for Inhibitors of GCN5L2; conditions: GCN5L2 HAT assay, ThioGlo1 CoA-SH fluorescence; series mostly up to 58.9 µM
In short: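 qHTS, 1536-well. 20nM enzyme, pH 7.5 HEPES/EDTA/Tween-20 buffer; 15 min compound preinc., RT. Start: 75uM H3(1-25), 70uM AcCoA, 50uM ThioGlo1. Read Ex340/Em540 at t=0 (autofluorescence flag) and t=20 min.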
Potency is the fitted concentration of half-maximal effect.

Structure (SMILES)	Potency
CN(C)CCCNc1ncnc2c1cnn2Cc1ccccc1Cl	inactive
CN(C)c1ccc(/C=N/NC(=O)c2ccc(NC(=O)c3ccccc3)cc2)cc1	inactive
O=C(COc1ccc(-c2ccccc2)cc1)N1CCN(S(=O)(=O)Cc2ccccc2)CC1	inactive
Cc1ccc(/C=C2/CNC/C(=C\c3ccc(C)cc3)C2=O)cc1	inactive
Nc1ccc2nn(-c3ccc(Cl)cc3)nc2c1	inconclusive: 17.8 µM [inhibitor, partial curve]
CCCCNc1c(-c2ccc(OC)c(SC(C)CC)c2)nc2ccc(C)cn12 (stereo not drawn)	inconclusive: 20 µM [inhibitor, partial curve]
COc1ccc(-c2nc3ccccc3c(=O)o2)cc1OC	inconclusive: 31.6 µM [inhibitor, partial curve]
Cc1c(C(=O)N(C)c2cccc(C(F)(F)F)c2)sc2nc3n(c(=O)c12)CCCCC3	inconclusive: 28.2 µM [inhibitor, partial curve]
CCN(CC)C(=O)c1cc(Cl)ccn1	inactive
Cc1ccc(-c2nn(CCC(=O)Nc3cccnc3)c(=O)c3ccccc23)cc1	inconclusive: 39.8 µM [inhibitor, single point]
O=C(Nc1cccc2cccnc12)c1ccc(Cl)cc1	inconclusive: 1.78 µM [inhibitor, partial curve]
O=C1CSC(=S)N1/N=C/c1ccc(Cl)c([N+](=O)[O-])c1	inconclusive: 44.7 µM [inhibitor, single point]
Nc1c(C(=O)Nc2ccc(Br)cc2)sc2nc(-c3ccco3)ccc12	inactive
COc1cc(/C=C2\C(=N)N3N=CSC3=NC2=O)ccc1OS(=O)(=O)c1ccccc1[N+](=O)[O-]	inconclusive: 12.6 µM [inhibitor, partial curve]
Cc1ccccc1Cn1cnc2c(cnn2C(C)(C)C)c1=O	inconclusive: 39.8 µM [inhibitor, single point]
CC(C)c1ccc(C(=O)CSc2ncn[nH]2)cc1	inconclusive: 39.8 µM [inhibitor, single point]
CCCNC(=O)c1ccc(N2CCC3(CC2)CC(c2ccccc2)=NO3)c(NC(=O)c2ccc(Br)cc2)c1	inactive
CC1(C)Cc2nc3[nH]c(=S)[nH]c(=O)c3cc2CO1	inconclusive: 5.01 µM [inhibitor, full curve, poor fit]
CCOc1ccc(/C=C2\SC(=S)N(CCC(=O)O)C2=O)cc1	inactive
CCCc1cc(=O)oc2cc(OCC(=O)NCCCN3CCOCC3)c(Cl)cc12	inconclusive: 7.08 µM [inhibitor, single point]
COc1cccc(C2C(C(C)=O)=C(O)C(=O)N2Cc2ccco2)c1 (stereo not drawn)	inactive
Cc1cccc(C(=O)OCC(=O)NCCNC(=O)COC(=O)c2cccc(C)c2C)c1C	inconclusive: 1.12 µM [inhibitor, full curve, poor fit]
CC1(C)Cc2ccccc2C(=O)N1	inactive
CC(=O)CC1(O)C(=O)Nc2ccccc21 (stereo not drawn)	inconclusive: 0.708 µM [inhibitor, full curve, poor fit]
CCCN1C(=O)C(O)(CC(=O)c2cccc(OC)c2)c2ccccc21 (stereo not drawn)	inactive

Structure (SMILES)	Potency
CC(=O)c1ccc(NC(=O)CNCc2cccs2)cc1	inactive
N=c1c(C(=O)NCC2CCCO2)cc2c(=O)n3ccccc3nc2n1Cc1ccccc1Cl (stereo not drawn)	inactive
Cc1ccc(CSc2cc(C)[nH]c(=O)n2)cc1	inconclusive: 22.4 µM [inhibitor, partial curve, poor fit]
CCCC[n+]1ccn(-c2nc3ccccc3nc2[N-]S(=O)(=O)c2ccc(Br)cc2)c1	inconclusive: 7.08 µM [inhibitor, single point]
COc1ccc(OC)c(NC(=O)c2ccc3c(c2)c(C)c(C)n3Cc2ccc(F)cc2)c1	inactive
O=C(NCc1cccc(Br)c1)c1cccn1-c1nnc(N2CCCCC2)s1	inactive
COc1ccc(CNC(=O)c2ccc(NS(=O)(=O)c3ccc4[nH]c(=O)[nH]c4c3)cc2)cc1OC	inconclusive: 25.1 µM [inhibitor, single point]
COc1ccc2nc(-n3c(C)ccc3C)sc2c1	inconclusive: 0.126 µM [inhibitor, full curve, poor fit]
O=C1C(=Cc2ccc(Br)o2)C(=O)c2ccccc21	inconclusive: 31.6 µM [inhibitor, single point]
CN1CC[C@@]23c4ccccc4N[C@H]1[C@]21CCN(C)[C@@H]3Nc2ccccc21	inconclusive: 1.12 µM [inhibitor, single point]
Cc1ccc(NS(=O)(=O)c2ccc(CCC(=O)NC3CC3)cc2)cc1	inactive
O=C1CC(NS(=O)(=O)c2cccs2)CN1c1ccc(F)cc1 (stereo not drawn)	inconclusive: 7.08 µM [inhibitor, single point]
Cc1cccc(N2CCN(C(=O)c3cc4ccccc4oc3=O)CC2)c1C	inconclusive: 39.8 µM [inhibitor, single point]
Cc1ccc2nc(-c3cccnc3)oc2c1	inconclusive: 3.55 µM [inhibitor, single point]
COc1ccc(C[C@H](N)C(=O)N[C@H]2[C@@H](O)[C@H](n3cnc4c(N(C)C)ncnc43)O[C@@H]2CO)cc1	inactive
Cc1ccc(-c2c3c(=O)n(C)c(=O)n(C)c3c3c(C(F)(F)F)nc4ccccc4n23)cc1	inactive
O=C(NCc1ccccc1)C(c1ccncc1)N(C(=O)c1ccccn1)c1ccccc1 (stereo not drawn)	inactive
O=C(CCC(=O)Nc1ccc(F)cc1)N/N=C/c1ccc(O)cc1O	inactive
O=C(c1ccco1)N1CCN(CCCCOc2cccc3ccccc23)CC1	inactive
CCCC(=O)Nc1ccc(Cl)c(NC(=S)NC(=O)c2cc3ccccc3o2)c1	inconclusive: 0.316 µM [inhibitor, partial curve, poor fit]
Cc1cc(/C=C\c2ccc3cc(N(C)C)ccc3[n+]2C)c(C)n1-c1ccccc1	inconclusive: 10 µM [inhibitor, partial curve, poor fit] and inconclusive: 15.8 µM [inhibitor, partial curve]
N=c1c2c(-c3ccccc3)c(-c3ccccc3)n(Cc3ccco3)c2ncn1Cc1ccco1	inactive
Cn1c2ccccc2c2cc(/C=N/NC(=O)c3cc(O)ccc3O)ccc21	inconclusive: 31.6 µM [inhibitor, single point]
CC(C)(C)c1ccc(S(=O)(=O)Nc2noc3ccccc23)cc1	inactive
CC(C)c1ccccc1OCC(O)CN1CCN(S(=O)(=O)c2ccc([N+](=O)[O-])cc2)CC1 (stereo not drawn)	inconclusive: 2.24 µM [inhibitor, partial curve]

Structure (SMILES)	Potency
COCc1cc(N2CCCCC2)nc(-c2ccccc2)n1	inactive
CC(C)Cn1c(N)c(C(=O)COC(=O)C2CCCCC2)c(=O)n(C)c1=O	inactive
COc1cc(OC)c(OC)cc1/C=N/Nc1nc2ccccc2[nH]1	inconclusive: 3.16 µM [inhibitor, partial curve]
Cc1ccc(C)c(C(=O)COC(=O)Cn2c(C)csc2=O)c1	inconclusive: 3.55 µM [inhibitor, full curve]
Cc1nc2cnc(Nc3ccccc3)nc2n(Cc2cccs2)c1=O	inconclusive: 25.1 µM [inhibitor, partial curve]
Oc1cccc(C2c3[nH]c4ccccc4c3CCN2Cc2ccc3c(c2)CCO3)c1 (stereo not drawn)	inactive
Cc1ccc(OCC(=O)Nc2nnc(S(=O)(=O)N3CCCCCC3)s2)cc1C	inactive
COc1ccccc1-c1cc(NCc2cnc(C)cn2)ncn1	active: 20 µM
CCN(CC)C(=O)CSc1nc(O)c(Cc2ccccc2)c(=O)n1-c1ccccc1C	inconclusive: 39.8 µM [inhibitor, single point]
O=C(CSc1nncn1-c1ccccc1)NC1CCCC1	inconclusive: 10 µM [inhibitor, partial curve]
O=C1C2C3C=CC(CO)(O3)C2C(=O)N1c1ccccc1-c1ccccc1 (stereo not drawn)	inconclusive: 12.6 µM [inhibitor, partial curve]
Cc1cc(Nc2nc3ccccc3nc2Cl)n(-c2ccccc2)n1	inactive
COc1ccc(OC)c([C@H](O)CNC(=O)CN)c1	inconclusive: 7.94 µM [inhibitor, partial curve, poor fit]
NCc1ccccc1Sc1ccccc1CO	inactive
CC(=O)c1ccc(OCc2ccc(C(=O)c3ccccc3)cc2)cc1	inconclusive: 17.8 µM [inhibitor, partial curve]
COc1ccc(/C=C(/C(=O)Nc2ccccc2C(=O)N2CCCC2)c2ccccc2)cc1	inconclusive: 1.58 µM [inhibitor, partial curve]
Cc1nnc2n1N=C(c1ccc3c(c1)NC(=O)CO3)CS2	inconclusive: 7.08 µM [inhibitor, single point]
O=C(N/N=C/c1cccc2ccccc12)c1cc2ccccc2o1	inconclusive: 1 µM [inhibitor, single point]
CC1CC(=O)c2c(cc3c(-c4c(O)cc(O)c5c(O)c6c(cc45)OC(C)CC6=O)c(O)cc(O)c3c2O)O1 (stereo not drawn)	inconclusive: 35.5 µM [inhibitor, single point]
COc1ccccc1NC(=O)NCC1CC1(Cl)Cl (stereo not drawn)	inconclusive: 31.6 µM [inhibitor, single point]
Cc1onc(-c2c(Cl)cccc2Cl)c1C(N)=O	inactive
COC(=O)c1c(-c2cccnc2)csc1NC(=O)c1cc(C)on1	inactive
Nc1c(S(=O)(=O)c2ccccc2)c2nc3ccccc3nc2n1Cc1ccco1	inconclusive: 31.6 µM [inhibitor, partial curve, poor fit]
